From patent US4954347A (priority 1988, dated 1990)
Where a name gives a salt, the structure may show the parent alone.

Assays:
[1] = one patient; co-administration of 80 mg quinidine gluconate every 8 hours; 8 hour dosing interval
[2] = oral; cited from earlier work

In the case of `CCCNCC(O)COc1ccccc1C(=O)CCc1ccccc1` (centres unmarked) [propafenone, 2'-[3-(prophylamino)-2-(hydroxy)-(propoxy)-3-phenylpropiophenone hydrochloride], the “propafenone plasma concentrations, increase versus propafenone administered alone” value [1] is listed as “about 150%” and the “hemodynamic changes or life-threatening toxic side effects” value [2] is listed as “does not appear to cause significant hemodynamic changes or life-threatening toxic side effects”.
